This experiment addresses Glucose-6-phosphate dehydrogenase (G6PD), endogenous in rat VSMCs (rat (endogenous in primary VSMCs)) (UniProt P05370). In words: affinity purification with mass spectrometry; IP with G6PD antibody (rabbit IgG as mock control) from lysates of rat VSMCs with or without PDGF-BB; SDS-PAGE, in-gel digestion, LC-MS/MS.

Sequences of proteins named here, by UniProt entry; tags and fusion partners are left off.
UniProt P05370: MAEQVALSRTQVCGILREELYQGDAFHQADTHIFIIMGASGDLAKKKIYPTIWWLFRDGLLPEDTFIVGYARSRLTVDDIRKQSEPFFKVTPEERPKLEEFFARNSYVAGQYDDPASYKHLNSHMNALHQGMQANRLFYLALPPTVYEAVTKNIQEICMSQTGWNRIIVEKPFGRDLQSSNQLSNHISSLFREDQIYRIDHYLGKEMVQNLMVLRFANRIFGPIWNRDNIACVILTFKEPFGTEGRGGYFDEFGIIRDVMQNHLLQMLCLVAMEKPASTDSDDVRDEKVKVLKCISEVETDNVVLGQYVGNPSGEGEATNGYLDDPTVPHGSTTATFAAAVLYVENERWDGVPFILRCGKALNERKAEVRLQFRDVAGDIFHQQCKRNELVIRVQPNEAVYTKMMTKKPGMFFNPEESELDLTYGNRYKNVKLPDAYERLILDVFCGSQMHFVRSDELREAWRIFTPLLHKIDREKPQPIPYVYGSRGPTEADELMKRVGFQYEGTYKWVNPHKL
UniProt Q9Z2L0: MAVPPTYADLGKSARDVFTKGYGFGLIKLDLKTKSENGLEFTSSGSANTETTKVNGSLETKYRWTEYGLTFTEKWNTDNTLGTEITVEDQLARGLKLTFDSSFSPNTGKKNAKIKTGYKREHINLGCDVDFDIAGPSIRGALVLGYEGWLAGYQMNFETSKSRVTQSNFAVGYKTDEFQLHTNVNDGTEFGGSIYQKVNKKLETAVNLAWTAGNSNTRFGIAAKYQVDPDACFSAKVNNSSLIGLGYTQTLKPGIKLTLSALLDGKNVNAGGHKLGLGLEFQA

No constants are given. Whether binding was seen depends on the method and setting. In cells and extracts the contact can be indirect. A yes stands for co-enrichment or nearness to the bait. Other partners may have been found.

In the case of “Voltage-dependent anion-selective channel protein 1 (VDAC1), endogenous in rat VSMCs (from UniProt Q9Z2L0 1-283)”, the binding result is “binds”.
